The whole screen tested about 53,000 sequences, of which about 3,700 (7%) were called active.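 The calls were made as follows: active = gene knockdowns whose robust z-score for IL-1 alpha signal is at least 2 or at most -2, so actives lie on both sides; inactive = the rest.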 The list shows a part of the results.

This assay can be described thus: Components of the Cytosolic LPS Sensing Pathway: Gene Identification via Genome-wide siRNA Screen.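 Also: robust z of the log signal after scaling to non-targeting control siRNA wells of the plate.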 Particulars: RAW264.7 macrophages, IL-1a HTRF, actives lie on both sides, screened at 100 nM (by protocol), cells primed 5 h with Pam3CSK4 first. The method, boiled down: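 Supernatant IL-1a by HTRF from RAW264.7 cells primed with Pam3CSK4 (5 hours) and transfected with LipidA (24 hour) after 48h siRNA knockdown at 100 nM; cell viability checked with CellTiter-Glo.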
GCCUUUAUACAAUUAGACUTT against Has3: the z-score is inactive: 0.107.
As for CGUAAGGCCUAAGGUUAUUTT against Leng1, the figure is inactive: 1.51; as for GGCAGAAGACCAAAAUUGGTT against Pmm2, inactive: -1.5; as for GGGAGUGUAUAAACCUCGGTT against Vdac2, inactive: 0.259.
For GCCUAGAAUCAAUGGAACCTT against Olfr402 the value was inactive: 0.784.
For GGUGAUCUAUCCCUAUUCATT against Ubash3b the value was inactive: -0.356; for CCUGAUACUAACAAGGAAATT against Afmid, inactive: -0.625.
GGUUUCCAACAACAUCAAATT against Hsd17b12: the z-score is inactive: -0.0368.
As for GGAACCAAUCAGUUGGUUATT against Taf7, the figure is inactive: 0.395; as for GCCGAUGAACCAAUGGAACTT against Psma1, inactive: -0.707.
As for CCAGAAAUUGACAAAAAGUTT against Etfa, the z-score is inactive: 0.492.
As for GGAAAUGGGUCUUGAAGUUTT against Lrrc58, the figure is inactive: -0.304.
Take GGAGAUCUUCAACUGCCACTT against Rps6kl1: the z-score is inactive: 0.842.
Take GCCUCCUGAAUGAUGACAUTT against Klk1b24: the z-score was inactive: -0.97.
As to GGGUAAACUAUUUGUUGUUTT against Arl6ip6, the z-score was inactive: 0.899.
For GGAUUGUUCUUUCUUUCUCTT against Stac the value was inactive: -0.00245; for GGGAUUCCUAUUUCACAUCTT against Gemin8, inactive: -0.733.
For the sequence CCCAAUGGCAAUUUUUAGATT against Slc22a22, the z-score was inactive: -0.846.
As for GGAAGUAACCACAUCCUAUTT against Epn2, the figure is inactive: -0.628; as for GGGAAUGGGUGUUCAUCCATT against Tnf, inactive: 0.68.
On to GCUGAGCUGCGCUUAUUGGTT against Fes, for which the z-score is inactive: -1.02.
For GGAGGAUAAGGAUACAGUATT against Cspg5 the value was active: 2.27; for CCUAUAUGCGCUAUUUGAATT against Myo9a, inactive: 0.513; for GGCCCUGUAGAAGACAAUGTT against Plxna1, inactive: -0.06.
As to GCACUCGUCGUUUGGCUAUTT against Pitx1, the z-score was inactive: 0.213.
For GGAAAAAGACCACAGCCAGTT against Oaz3 the value was inactive: -1.75.
Consider “GCCAUAAAAGCCUCAUUAGTT against C130021I20Rik”, for which the z-score was inactive: -0.2.
For the sequence GGAGCUGGUGCUGAAGAACTT against Cnppd1, the z-score was inactive: 0.841.
Consider GGUCCCUUCUUCUCAAGGUTT against Olfr1, for which the z-score was inactive: 1.94.
As for CCCAGGACAAAAUAGUGUCTT against Olfr164, the figure is inactive: -0.68.
As for GGCCUAUUGUAAAAACCCATT against Taf1b, the figure is active: -2.56; as for GGUUUUGAAGUGAUUGAAGTT against Tjp2, inactive: -0.218.
With GGAGAUGAUGUCACCUACATT against Cttnbp2nl, the z-score is inactive: 1.27.
In the case of GGAAGAAAACAAAGACGGCTT against Mxd4, the z-score was inactive: 0.0149.
For GCCACUUAGAAUGACCUAATT against Dpcd, the z-score is inactive: -1.63.
Turning to GGUGAUAAUUAAUGUCUUGTT against Naip1, the z-score was active: 2.08.
With GCCGCCACAAAGUUUGCAUTT against Spock3, the z-score was inactive: 0.0414.
For GGUGACUUCAGAUGUGGCCTT against Ehmt2 the value was inactive: -1.29; for CCCACUAUGAUCCACCUAGTT against Hnrnph2, inactive: -0.307.
For the sequence GGUUGAAAAUGUUGAUCGUTT against Rnd3, the z-score is inactive: -0.398.
As for GGGCGAAGAUACAAGUGACTT against Tnp2, the figure is inactive: -1.76; as for GGAAAGGUCAAGCUGGUUCTT against Tm9sf3, inactive: 0.111; as for GGCAAUUUAAGAAAGAUGUTT against Cep68, inactive: -0.702.
For CCUCAUUGUGGUUACCCUCTT against Olfr93 the value was inactive: -0.654; for GGACAGUACGCAAAGACCUTT against Rxra, inactive: -0.847; for GCCUAAGUUCAUUCUGAAATT against Ccdc137, inactive: 0.31.
Regarding GGCUUAGAGAAACUCUAGATT against Nacc1, the z-score is inactive: 1.3.
For GGGUUGGAUUCCUACCCAGTT against AA986860 the value was inactive: 0.775; for GGAUGUCACUGAAAUUGCCTT against Gas2l1, inactive: -1.37; for CCCGUUGCAUGUUAUAUGCTT against Gtpbp3, inactive: 0.0974.
As to GCGAGUCAUACCAAUUAGATT against Trmt2a, the z-score is inactive: -0.128.
On to “GGUUCUGGAGAACAGAGUCTT against 4930483J18Rik”, for which the z-score was inactive: -0.44.
GCUUUAUCUAUUUCACCAATT against Olfr1442: the z-score is inactive: 0.235.
As for CGUUUAUGUGUAUUAACCATT against Ppid, the figure is inactive: -0.907; as for GCUUAAAACAGACCAUUUUTT against Ttc32, inactive: 1.07.
As for GGGAAUUCUAUUCAACACUTT against Rps6ka5, the figure is inactive: -0.478; as for GGAUUCUUGGUAGCCCAAATT against Magea2, inactive: 0.297; as for GGAAGAGAUAUCUGAACUUTT against Angel1, inactive: 1.03.
With CGUAUGGAUGGAAUACAAUTT against Rap2b, the z-score was inactive: 1.66.
For GCGUGUGAUUAAUAAAGUUTT against Vps54 the value was inactive: 0.0253; for GGGCUGAAAGACUCAAAGCTT against Olfr577, inactive: -0.974.
In the case of GCAAAGAAGCUCUUUAGAGTT against Hoxc5, the z-score was inactive: 0.455.
GCCAUUAUAUAGUCCUACCTT against Klf1: the z-score is inactive: 0.719.
With GGAAUUCCAGUUUCUUCAATT against Tle2, the z-score was inactive: 0.356.
For GCCAUAUGCUAUCAAGAUGTT against Pskh1 the value was inactive: -0.715; for “GGAGAGAUUAAUUUCUGUATT against 4430402I18Rik”, inactive: 0.485.
For GGCACUGUAAAUGUACUCATT against Rbak the value was active: -2.54.
As to GGAAUUAGAGAACUUAGUUTT against Gclm, the z-score is inactive: 0.562.
As for GGAAAGGUGUAUUCUUAAUTT against Bhlhe22, the figure is inactive: 1.43; as for GGACAAUCCUGUCUUCCAGTT against Paox, inactive: 0.964.
For GGUUUCGUACCAUGAAACATT against Stx2, the z-score is inactive: -0.147.
As for GGCAGAAAACAAGAUAAAGTT against Eif4h, the figure is inactive: -0.325.
Regarding GGAGACAGAAUUCAAAACUTT against P2ry1, the z-score is inactive: 0.0725.
For GGAAGAUAACCAUUUUGAATT against Setd4 the value was inactive: -0.777; for CCCUACAGGAAGUCACUCUTT against Gsdma, inactive: 0.226.
As for CGUAGAAAGCUCAUUAUUUTT against Clmn, the figure is inactive: -0.142; as for GGAAGGUGAUGAAGGAUCGTT against Fam118a, inactive: 0.0491; as for GGCUUUGUGGAUUUUGAAGTT against Cabp4, inactive: -1.2.
As for GGAAAAGGUCCUGUGCUGUTT against Abhd2, the figure is inactive: 1.68.
As for CGGAUAUCACUCUGAGAAGTT against Loxl4, the z-score was inactive: -0.816.
On to CCCAUUGAACAGGAUGUUATT against Coq9, for which the z-score was inactive: -0.292.
Take CCAGUCACUAUUUGAGUGUTT against Erg: the z-score was inactive: 1.9.
For GGAAAGACCAAAUCAGAUGTT against Arid5a the value was inactive: 0.597.
As for GGCUAAGACUCUCUGAAAUTT against F2rl1, the figure is inactive: 0.926.
For GCUCUGUUACUAUUUGAAUTT against Cts6 the value was inactive: 0.137.
GCACUGUCAUGAAAUAUUUTT against Adgrv1: the z-score is inactive: -0.618.
Turning to CCUGACCAAUGAAACCUUATT against Il22ra2, the z-score is inactive: 0.896.
As to GGAAUAUAGAAGACUAAGUTT against Gm5114, the z-score is inactive: 0.237.
Consider GCUGACUGAAUCACAAGCCTT against BC024139, for which the z-score is inactive: 0.841.
Turning to CGACAGUGAAUGCGCUAAGTT against Slc7a9, the z-score was inactive: -0.218.
Regarding GAUUUUCUGUAUCCAUCUATT against Olfr725, the z-score was inactive: 0.0676.
GGCAGAAGAGCAGUCUGAATT against Umodl1: the z-score was inactive: 0.135.
On to GGCGCAGACACUCAGUUUGTT against Cpped1, for which the z-score was inactive: 0.57.
In the case of GGAAACUGUCAUCGAUAGGTT against Dlgap4, the z-score is inactive: 0.832.
For GGACAACAUAGCAAGAUUUTT against Ptpn7 the value was inactive: 0.0731.
For CCUGAUAUACCAGCCACCGTT against Pex2 the value was inactive: -0.319; for CCGCCUCCUGACAAAAGUGTT against Trim17, inactive: 0.207; for GGCAUGGUUUGGAUUUGCGTT against Camk2b, inactive: 0.353.
For UCUCCUACCUAUGCACAUATT against Panx2 the value was inactive: -0.925.
In the case of GGUCUUGGAGUUGCUAAUUTT against Med4, the z-score was active: 2.63.
As for CCGACCACUACACAAGCCUTT against Olfr449, the figure is inactive: -0.203; as for GGACGAUAAGCUUAGCCCUTT against Nfkbib, inactive: 0.179; as for GCCCAUGAAAGAUGAUAUCTT against Ak2, inactive: -0.0952.
As for GCAUAUGACCUAAGAGUGATT against Slc6a7, the figure is inactive: 0.55.
Regarding GCUAUAGGCAAUGUGAUCUTT against Btnl1, the z-score was inactive: -1.86.
As for CCUUCUCCUGAAGAAUUGATT against Smagp, the z-score was inactive: -0.223.
For GGUCAGCCUAAGAAUGUACTT against Prss28 the value was inactive: -1.14.

These data come from PubChem BioAssay AID1508600 (Functional Genomics Laboratory (NCATS/FGL), 2020).
